{
  "source": "patent EP0684037B1",
  "about": "“Deodorant compositions” (UNILEVER PLC, priority 1994, dated 1995)",
  "assay": "Odour Intensity Index Method (panel, magnitude estimation against benzyl acetate standards)",
  "data": [
    {"smiles": "CC(=O)OCc1ccccc1", "note": "[Benzyl Acetate]", "values": [
      {"measurement": "Perceived Odour Index", "setting": "1% in dipropylene glycol", "result": 54},
      {"measurement": "Perceived Odour Index", "setting": "5% in dipropylene glycol", "result": 89},
      {"measurement": "Perceived Odour Index", "setting": "10% in dipropylene glycol", "result": 102},
      {"measurement": "Perceived Odour Index", "setting": "20% in dipropylene glycol", "result": 108},
      {"measurement": "Perceived Odour Index", "setting": "50% in dipropylene glycol", "result": 120},
      {"measurement": "Perceived Odour Index", "setting": "Neat", "result": 132}
    ]}
  ]
}
